These results are taken from PubChem BioAssay AID2685 (National Center for Advancing Translational Sciences (NCATS), 2010).

By AC50 is commonly meant the midpoint of the concentration-response curve, whichever way the signal moves. Read a low AC50 as activity at low concentration.

The experiment is described as follows: qHTS Assay for Lipid Storage Modulators in Drosophila S3 Cells.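 On cell number change: cells counted by Cell Tracker Red CMTPX staining in the red channel.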 To be noted: BODIPY lipid droplet fluorescence, 18-24 h; for cell number change: measured here: cell count max response, cells fed with added oleic acid. The procedure, abridged: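 Drosophila S3 cells loaded with oleic acid (400 uM, as added) and compounds at several concentrations; lipid droplets imaged by 488-nm laser-scanning cytometry, 500–530 nm intensity and object ratio to cell channel. Percent activity normalized to 20 uM Triacsin C.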
A general note: Quantitative high-throughput screening tests each substance at several concentrations.

Setting [1] is: measured here: lipid fluorescence (Fed channel) AC50, cells fed with added oleic acid.
[2] abbreviates: measured here: cell number channel AC50, cells fed with added oleic acid.

Values joined by “and” are separate entries in the source; they are usually repeats but may differ in a detail not shown here. Identical values can stand only once. The list shows a part of the results. These are further read-outs of the screen, such as a control signal, another cell line or another target. No call is given for them. The list favours compounds with an active or inconclusive main result. Words in brackets tell the shape of the fitted curve; partial curves, single points and poor fits give uncertain potencies.

For `Cc1c(-n2c(O)c(C3=c4ccccc4=NC3=O)sc2=S)c(=O)n(-c2ccccc2)n1C`, the cell number change turned out to be 0.273%. Besides, the AC50 under setting [1] was 29.1 µM [rising, single point]. Take `Cc1ccc(N2C(=O)CC(Sc3nccc(C)n3)C2=O)cc1` (centres undefined): the cell number change was -12.1%. The AC50 under setting [1] is 13 µM [rising, partial curve]. Regarding `COC(=O)c1cccc(NS(=O)(=O)c2ccc(NC(C)=O)cc2)c1C`, the cell number change was -82.8%. In the case of `CC(OC(=O)CC1Sc2ccccc2NC1=O)C(=O)NC1CCCC1` (centres undefined), the cell number change amounted to 0.833%. Moreover, the AC50 under setting [1] is 0.146 µM [falling, full curve]. `CCOc1ccc(Cc2nc(C)c(CC(=O)N3CCOCC3)c(=O)[nH]2)cc1`: the cell number change was -3.27%.

`O=C(O)c1cccc(N2C(=O)/C(=C/c3ccc(SCc4ccc(Cl)cc4)o3)SC2=S)c1`: the cell number change stood at 2.73%. Also, under setting [2], the AC50 is 0.00461 µM [falling, full curve, poor fit]. For `Cc1cccc(-c2c(O)cc(=O)[nH]c2Cl)c1`, the cell number change came out at 1.09%. On to `CCOCCCNC(=O)C1CCN(S(=O)(=O)c2cc(Br)cc3c2N(C(=O)CC)CC3)CC1`, for which the cell number change was -27.6%. For the same molecule, the AC50 under setting [1] was 6.51 µM [rising, single point]. Take `Cc1cc(C)nc(NS(=O)(=O)c2ccc(NC(=O)c3cccc(N4C(=O)CCC4=O)c3)cc2)n1`: the cell number change worked out at 12.8%. Besides, the AC50 under setting [2] was 0.092 µM [rising, full curve, poor fit]. The AC50 under setting [1] is 23.1 µM [falling, partial curve, poor fit]. Regarding `COc1ccc(N/C(C)=C/C(=S)Nc2ccccc2)cc1`, the cell number change amounted to 15.8%. Moreover, the half-maximal activity concentration (AC50) under setting [1] was 0.517 µM [rising, partial curve].

Take `O=C(Nc1ccc2c(c1)oc1ccccc12)C1CC1`: the cell number change was -5.56%. The concentration at half-maximal activity (AC50) under setting [1] is 2.59 µM [rising, single point].

`Brc1ccc(-c2ccc(/C=N/Nc3nc4ccccc4[nH]3)o2)cc1`: the cell number change is -52.9%. The AC50 under setting [2] was 29.1 µM [falling, partial curve, poor fit]. Moreover, the AC50 under setting [1] was 25.9 µM [falling, partial curve]. For `CCOC(=O)N1CCN(C(=O)/C(=C/c2cccc3ccccc23)NC(=O)c2ccc(OC)c(OC)c2)CC1`, the cell number change was 4.01%. Also, the AC50 under setting [1] was 5.17 µM [rising, partial curve]. For the molecule `CCCCCOC(=O)Cn1c(=O)c2c(nc(N3CCOCC3)n2C)n(C)c1=O`, the AC50 under setting [1] was 6.51 µM [rising, single point]. `Fc1ccc(Oc2ccc3nnc(C(F)(F)F)n3n2)cc1`: the AC50 under setting [1] is 18.4 µM [rising, single point].

With `CCOC(=O)CNC(=O)CSc1nnc(NC(=O)c2ccc(S(=O)(=O)N3CCOCC3)cc2)s1`, the cell number change turned out to be 9.48%. Under setting [1], the AC50 was 0.651 µM [rising, partial curve].

For the molecule `CCOC(=O)C1=CCC2c3c(c4ccccc4n3C)C(=O)C1N2C(=O)OC(C)(C)C` (centres undefined), the cell number change is -1.9%. In addition, under setting [2], the AC50 was 0.731 µM [falling, full curve]. The AC50 under setting [1] was 0.92 µM [falling, full curve].

For the molecule `Cc1nn(-c2ccccc2)c2sc(C(=O)NC3CC3)cc12`, the cell number change was -44.4%. In addition, the AC50 under setting [2] is 1.46 µM [falling, partial curve]. Regarding `C/C(=N/NS(=O)(=O)c1ccc(Br)cc1)c1ccc(NC(=O)c2ccc(C)o2)cc1`, the cell number change was -23.8%. In addition, the AC50 under setting [1] is 10.3 µM [rising, partial curve]. As to `CCOC(=O)C1=C(COCCN)NC(C)=C(C(=O)OC)C1c1ccccc1Cl` (centres undefined), the cell number change is 14.1% and 2.89%. For the same molecule, the AC50 under setting [1] is 2.91 µM [rising, full curve] and 164 nM [rising, full curve, poor fit]. Regarding `CCOC(=O)C1CCN(CC(O)COc2ccc(C(C)=O)cc2)CC1` (centres undefined), the AC50 under setting [1] is 0.00517 µM [falling, full curve, poor fit]. For the molecule `Cc1ccc(-c2nnc(CN3CCCCC3C)o2)cc1` (centres undefined), the cell number change was determined as 14.9%. Further, the half-maximal activity concentration (AC50) under setting [1] is 16.4 µM [rising, single point]. For the molecule `CN(C)c1ccc(C2Nc3ccccc3C(=O)N2CCCN2CCOCC2)cc1` (centres undefined), the cell number change was found to be 40.1%. Further, under setting [1], the AC50 was 5.8 µM [rising, partial curve, poor fit].

In the case of `COc1ccc(NC(=O)c2cccc(N3C(=O)C4C5C=CC(C5)C4C3=O)c2)cc1` (centres undefined), the cell number change was -5.8%. Moreover, under setting [1], the AC50 is 29.1 µM [falling, single point]. For `Cc1ccc2nc(-c3ccccn3)cc(C(=O)Nc3ccc4c(c3)OCO4)c2c1`, the cell number change is 76%. For `COc1ccc(/C=C2\SC(=O)N(CC(=O)NC3CCS(=O)(=O)C3)C2=O)cc1` (centres undefined), the cell number change was 26.7%. The AC50 under setting [1] was 5.8 µM [rising, single point].

In the case of `CCc1ccccc1NC(=O)CN1CCN(CC(=O)Nc2cc(C)ccc2OC)CC1`, the AC50 under setting [1] was 0.231 µM [rising, full curve, poor fit]. Turning to `CC#CC[N+](C)(C)CCCCCCCCCCCC`, the cell number change is -75.7%. The AC50 under setting [2] was 16.4 µM [falling, single point]. `Cc1ccccc1NS(=O)(=O)c1ccc(NC(=O)c2nc3ncccn3n2)cc1`: under setting [1], the AC50 was 4.11 µM [rising, partial curve, poor fit]. With `COc1ccccc1CNC(=O)[C@@H]1CCCN1S(=O)(=O)c1ccccc1F`, the cell number change came out at 5.46%. With `COc1ccc(C(=O)N2CC3(CC(c4cccc(NC(=O)CC(c5ccccc5)c5ccccc5)c4)=NO3)C[C@H]2C(N)=O)cc1` (some centres undefined), the cell number change amounted to 11.1%. For the same molecule, under setting [1], the AC50 is 0.651 µM [rising, partial curve, poor fit]. For `CC1CN(C(=S)NC(=O)c2cccc([N+](=O)[O-])c2)CC(C)O1` (centres undefined), the cell number change was -13.2%. For the same molecule, the AC50 under setting [1] is 0.461 µM [falling, full curve, poor fit]. Take `CCC(C)[C@H](NC(=O)N1CCCCCC1)C(=O)O` (some centres undefined): the cell number change was 12.4%. With `CCOC(=O)CSc1nc2c(sc(=S)n2-c2ccccc2)c(=O)n1-c1ccc(OC)cc1OC`, the cell number change was 38%. In addition, the AC50 under setting [2] is 25.9 µM [rising, single point]. Further, under setting [1], the AC50 was 29.1 µM [rising, single point]. Regarding `CCOC(=O)c1c(NC(=O)CSc2nnc(-c3ccco3)o2)sc(C(C)=O)c1C`, the cell number change came out at 14.3%. Also, under setting [2], the AC50 is 0.517 µM [rising, full curve]. In addition, under setting [1], the AC50 is 0.517 µM [rising, full curve]. `Cc1cc2ncc(-c3ccc(Cl)cc3)cn2n1`: the cell number change worked out at 5.48%. On to `CC(=O)Oc1cc2oc(=O)cc(C)c2cc1Cl`, for which the cell number change was -4.59%. Besides, the AC50 under setting [2] was 0.0164 µM [falling, full curve, poor fit]. Further, the AC50 under setting [1] was 0.058 µM [falling, full curve, poor fit].

With `COC(=O)c1cccc(-n2[nH]nnc2=S)c1`, the cell number change was -27.2%.
